Measurements reported in PubChem BioAssay AID1259308 (NCATS, 2017)

- Purpose: 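Genes whose loss raises luciferase production in HEK293 cells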 (primary screen)
- System: human HEK293 embryonic kidney cells stably expressing firefly luciferase (HEK-CMV-Luc2-Hygro)
- Knock-down reagent: single siRNA against human genes, 0.8 pmol siRNA per well
- Time to read-out: 72 h
- Measurement: 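Reporter luminescence and viable-cell signal on separate replicate plates, given as percent of non-targeting control and median/MAD z-scores, plus per-cell luciferase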
- Direction: total luciferase, z-score and total luciferase, % of control: higher = more reporter protein produced
- Hit rule: 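Active when the median/MAD z-score for overall luciferase is greater than 3; a gene was taken forward for validation with new siRNAs if at least two of its three siRNAs passed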
- Calls: active = raised luciferase; inactive = no rise
Here is an unselected part of about 59,000 reagents tested. In the full data, about 1,510 (2.6%) were called active. 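Calls use total luciferase alone and ignore viability, so some active siRNAs may act by altering cell number.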 A number with no mark means an inactive call. Reagents against one gene are numbered here. Not all columns of the deposit are shown.

HDAC5 #1 gave total luciferase, z-score -0.558; total luciferase, % of control 70.8. Against HDAC5 #2 the deposit lists total luciferase, z-score 0.171; total luciferase, % of control 85.3. Against HDAC5 #3 the deposit lists total luciferase, z-score 0.722; total luciferase, % of control 96.2. Depletion of ZNF114 #1 resulted in: total luciferase, z-score -1.09; total luciferase, % of control 60.3. ZNF114 #2 gave total luciferase, z-score 0.395; total luciferase, % of control 89.7. With knock-down of ZNF114 #3, the record shows total luciferase, z-score -0.393; total luciferase, % of control 74.1.

Knock-down of EIF3D #1 resulted in: total luciferase, z-score -0.617; total luciferase, % of control 69.6. Against EIF3D #2, the values are total luciferase, z-score -1.78; total luciferase, % of control 46.6. For EIF3D #3, the values are total luciferase, z-score -1.51; total luciferase, % of control 51.9. Against CFAP251 #1, the entry reads total luciferase, z-score -2.71; total luciferase, % of control 28. For CFAP251 #2, the values are total luciferase, z-score -1.04; total luciferase, % of control 61.2. CFAP251 #3 scored total luciferase, z-score -1.28; total luciferase, % of control 56.5.

Against ELF1 #1, the entry reads total luciferase, z-score 0.852; total luciferase, % of control 98.8. After knock-down of ELF1 #2, the screen gave total luciferase, z-score 0.793; total luciferase, % of control 97.7. ELF1 #3 gave total luciferase, z-score -1.3; total luciferase, % of control 56.1. ALAD #1 showed total luciferase, z-score 4.18 (active); total luciferase, % of control 165. Depletion of ALAD #2 resulted in: total luciferase, z-score -0.681; total luciferase, % of control 68.3. With knock-down of ALAD #3 the results were total luciferase, z-score -0.067; total luciferase, % of control 80.6.

With knock-down of PDCD11 #1, the record shows total luciferase, z-score -0.443; total luciferase, % of control 73.1. Depletion of PDCD11 #2 gave: total luciferase, z-score -0.225; total luciferase, % of control 77.4. Against PDCD11 #3 the deposit lists total luciferase, z-score -0.514; total luciferase, % of control 71.7.
